Results are given in words; binding and its absence hold for the method and conditions named. In cells and extracts the contact can be indirect. Some entries that bind do so weakly or less than the wild type.
Biological target: β1 integrin (mouse (endogenous in murine colon)) (UniProt P09055)
Assay: proximity ligation; in situ PLA (DuoLink) on frozen murine colon sections fixed in 4% paraformaldehyde, permeabilised with 0.5% Triton X-100; anti-CD47 antibody with anti-goat plus probe, anti-integrin β1 antibody with probemaker minus; signal when the two proteins are within 40 nm; Cd47-/- colon as negative control

Protein sequences, listed by entry. Tags and fused reporters are not part of them. Residues count along the entry.
UniProt P09055, residues 21-798: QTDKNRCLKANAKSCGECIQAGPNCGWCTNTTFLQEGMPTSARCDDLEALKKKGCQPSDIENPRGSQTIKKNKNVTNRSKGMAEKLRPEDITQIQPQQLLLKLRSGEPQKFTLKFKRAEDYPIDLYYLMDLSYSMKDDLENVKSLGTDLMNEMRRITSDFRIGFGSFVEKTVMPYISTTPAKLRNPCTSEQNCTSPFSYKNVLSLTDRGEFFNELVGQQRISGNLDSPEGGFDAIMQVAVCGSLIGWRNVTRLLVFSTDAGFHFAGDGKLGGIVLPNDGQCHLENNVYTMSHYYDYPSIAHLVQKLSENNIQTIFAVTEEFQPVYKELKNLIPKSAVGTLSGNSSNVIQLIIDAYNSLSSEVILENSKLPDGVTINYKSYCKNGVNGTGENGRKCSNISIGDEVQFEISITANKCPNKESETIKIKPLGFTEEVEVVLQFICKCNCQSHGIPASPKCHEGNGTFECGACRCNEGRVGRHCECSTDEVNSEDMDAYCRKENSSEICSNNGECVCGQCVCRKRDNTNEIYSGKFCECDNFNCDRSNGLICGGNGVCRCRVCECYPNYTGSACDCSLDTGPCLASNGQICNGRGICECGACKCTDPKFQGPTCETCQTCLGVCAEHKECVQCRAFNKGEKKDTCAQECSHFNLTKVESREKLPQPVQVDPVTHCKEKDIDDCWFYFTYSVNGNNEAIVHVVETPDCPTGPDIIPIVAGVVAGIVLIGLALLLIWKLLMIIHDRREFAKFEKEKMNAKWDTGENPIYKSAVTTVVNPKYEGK

B1: CD47 (protein, UniProt Q61735 19-303)
chain: QLLFSNVNSIEFTSCNETVVIPCIVRNVEAQSTEEMFVKWKLNKSYIFIYDGNKNSTTTDQNFTSAKISVSDLINGIASLKMDKRDAMVGNYTCEVTELSREGKTVIELKNRTVSWFSPNEKILIVIFPILAILLFWGKFGILTLKYKSSHTNKRIILLLVAGLVLTVIVVVGAILLIPGEKPVKNASGLGLIVISTGILILLQYNVFMTAFGMTSFTIAILITQVLGYVLALVGLCLCIMACEPVHGPLLISGLGIIALAELLGLVYMKFVASNQRTIQPPRNR
  binding: binds

Source: paper PMC6825175
